Measured data: PubChem BioAssay AID1259308 (NCATS, 2017)
Purpose: 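Candidate targets for better recombinant protein yield in mammalian cells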 (primary screen). Cells: human HEK293 embryonic kidney cells stably expressing firefly luciferase (HEK-CMV-Luc2-Hygro). Knock-down reagent: single siRNA against human genes, 0.8 pmol siRNA per well. Duration: 72 h. Read-out: 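Luciferase light (ONE-Glo) measured on one replicate plate set and viability (CellTiter-Glo) on the other, scaled to a negative control siRNA, with robust z-scores and luciferase per cell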. Scale: total luciferase, z-score and total luciferase, % of control: higher = more reporter protein produced; luciferase per cell, z-score: higher = more reporter output per viable cell. Active means: 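An siRNA counts as active if its total luciferase robust z-score exceeds 3; genes with two or more such siRNAs out of three were retested with fresh siRNAs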. Calls: active = raised luciferase; inactive = no rise.
The deposit covers about 59,000 reagents; shown is an unselected part. About 1,510 of all reagents (2.6%) were called active. 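Calls use total luciferase alone and ignore viability, so some active siRNAs may act by altering cell number.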 A number with no mark means an inactive call. Not all columns of the deposit are shown. No sequences are given here.

| gene | PubChem SID | total luciferase, z-score | total luciferase, % of control | luciferase per cell, z-score |
| --- | --- | --- | --- | --- |
| SLC3A1 (GeneID 6519) | SID160716821 | -0.742 | 67.1 | -0.413 |
| SLC3A1 (GeneID 6519) | SID160716822 | 0.142 | 84.7 | -0.152 |
| SLC3A1 (GeneID 6519) | SID160716823 | -0.282 | 76.3 | -0.077 |
| SP3 (GeneID 6670) | SID160717228 | -1.03 | 61.5 | -1.31 |
| SP3 (GeneID 6670) | SID160717229 | -0.1 | 79.9 | 0.0429 |
| SP3 (GeneID 6670) | SID160717230 | 1.17 | 105 | 1.24 |
| COX16 (GeneID 51241) | SID160740389 | 0.876 | 99.3 | 0.0632 |
| COX16 (GeneID 51241) | SID160740390 | 1.5 | 112 | 1.76 |
| COX16 (GeneID 51241) | SID160740391 | 0.121 | 84.3 | -0.242 |
| TTC23 (GeneID 64927) | SID160748143 | 3.31 (active) | 148 | 2.1 |
| TTC23 (GeneID 64927) | SID160748144 | 0.642 | 94.7 | 0.138 |
| TTC23 (GeneID 64927) | SID160748145 | -0.657 | 68.8 | -0.993 |
| FFAR4 (GeneID 338557) | SID160731098 | 2.95 | 141 | 1.85 |
| FFAR4 (GeneID 338557) | SID160764035 | 0.663 | 95.1 | -0.234 |
| FFAR4 (GeneID 338557) | SID160764036 | 0.606 | 93.9 | 0.329 |
| UNG (GeneID 7374) | SID160718629 | -1.2 | 58 | -1.47 |
| UNG (GeneID 7374) | SID160718630 | -1.4 | 54 | -1.95 |
| UNG (GeneID 7374) | SID160718632 | -0.153 | 78.8 | -0.338 |
| PCDH20 (GeneID 64881) | SID160748110 | -1.52 | 51.6 | -0.939 |
| PCDH20 (GeneID 64881) | SID160748111 | 3.52 (active) | 152 | 3.8 |
| PCDH20 (GeneID 64881) | SID160748112 | -0.624 | 69.5 | -0.545 |
| TMEM223 (GeneID 79064) | SID160748561 | 1.99 | 121 | 1.27 |
| TMEM223 (GeneID 79064) | SID160748562 | 0.22 | 86.3 | -0.36 |
| TMEM223 (GeneID 79064) | SID160748563 | 0.108 | 84 | -0.0969 |
| ZNF784 (GeneID 147808) | SID160758573 | 1.88 | 119 | 1.4 |
| ZNF784 (GeneID 147808) | SID160758575 | 0.375 | 89.3 | 0.344 |
| ZNF784 (GeneID 147808) | SID160758576 | 0.911 | 100 | 1.06 |
| NAPRT (GeneID 93100) | SID160724707 | 0.632 | 94.5 | 0.541 |
| NAPRT (GeneID 93100) | SID160735207 | 0.154 | 84.9 | 0.542 |
| NAPRT (GeneID 93100) | SID160754434 | 0.506 | 92 | -0.162 |
| ASCL4 (GeneID 121549) | SID160755917 | 1.71 | 116 | 1.53 |
| ASCL4 (GeneID 121549) | SID160755918 | 1.81 | 118 | 1.36 |
| ASCL4 (GeneID 121549) | SID160755919 | -0.528 | 71.4 | 0.0454 |
| LOC729218 (GeneID 729218) | SID160726971 | 0.629 | 94.4 | 0.503 |
| LOC729218 (GeneID 729218) | SID160726972 | -0.352 | 74.9 | -1.03 |
| LOC729218 (GeneID 729218) | SID160734453 | 0.0815 | 83.5 | 0.184 |
| LOC729218 (GeneID 729218) | SID160734454 | 0.694 | 95.7 | -0.248 |
| LOC729218 (GeneID 729218) | SID160772340 | 0.234 | 86.5 | 0.19 |
| LOC729218 (GeneID 729218) | SID160772549 | -0.142 | 79.1 | 0.0734 |
| BCCIP (GeneID 56647) | SID160733643 | 0.269 | 87.2 | 0.0527 |
| BCCIP (GeneID 56647) | SID160745086 | -1.11 | 59.9 | -1.15 |
| BCCIP (GeneID 56647) | SID160745087 | -1.03 | 61.4 | -1.27 |
| CHMP2B (GeneID 25978) | SID160737377 | -0.677 | 68.4 | -0.34 |
| CHMP2B (GeneID 25978) | SID160737378 | 1.59 | 114 | 1.48 |
| CHMP2B (GeneID 25978) | SID160737379 | -0.0923 | 80.1 | 0.225 |

Next part (5 carried over from the part before).
| gene | PubChem SID | total luciferase, z-score | total luciferase, % of control | luciferase per cell, z-score |
| --- | --- | --- | --- | --- |
| BCCIP (GeneID 56647) | SID160745086 | -1.11 | 59.9 | -1.15 |
| BCCIP (GeneID 56647) | SID160745087 | -1.03 | 61.4 | -1.27 |
| CHMP2B (GeneID 25978) | SID160737377 | -0.677 | 68.4 | -0.34 |
| CHMP2B (GeneID 25978) | SID160737378 | 1.59 | 114 | 1.48 |
| CHMP2B (GeneID 25978) | SID160737379 | -0.0923 | 80.1 | 0.225 |
| NECAP1 (GeneID 25977) | SID160737373 | -0.451 | 72.9 | -0.573 |
| NECAP1 (GeneID 25977) | SID160737375 | 0.253 | 86.9 | 0.27 |
| NECAP1 (GeneID 25977) | SID160737376 | -0.594 | 70.1 | -0.615 |
| RAB43 (GeneID 339122) | SID160764150 | -2.3 | 36.1 | -2.5 |
| RAB43 (GeneID 339122) | SID160764151 | 0.633 | 94.5 | 1 |
| RAB43 (GeneID 339122) | SID160764152 | -0.149 | 78.9 | 0.0598 |
| SESN3 (GeneID 143686) | SID160758060 | 1.44 | 111 | 1.57 |
| SESN3 (GeneID 143686) | SID160758061 | -1.73 | 47.4 | -1.05 |
| SESN3 (GeneID 143686) | SID160758063 | 1.53 | 112 | 0.501 |
| ZNF808 (GeneID 388558) | SID160725199 | -1.37 | 54.7 | -0.201 |
| ZNF808 (GeneID 388558) | SID160765898 | 2.04 | 123 | 4.04 |
| ZNF808 (GeneID 388558) | SID160765899 | -0.733 | 67.3 | -0.416 |
| CMBL (GeneID 134147) | SID160757307 | -1.2 | 58 | -1.17 |
| CMBL (GeneID 134147) | SID160757308 | -0.361 | 74.7 | -0.939 |
| CMBL (GeneID 134147) | SID160757309 | -0.881 | 64.4 | -1.09 |
| PRB3 (GeneID 5544) | SID160714858 | 0.771 | 97.2 | 0.888 |
| PRB3 (GeneID 5544) | SID160714859 | 0.982 | 101 | 2.1 |
| PRB3 (GeneID 5544) | SID160733605 | 1.46 | 111 | 0.486 |
| SAYSD1 (GeneID 55776) | SID160744331 | -1.26 | 56.8 | 0.0945 |
| SAYSD1 (GeneID 55776) | SID160744332 | 0.699 | 95.8 | 0.278 |
| SAYSD1 (GeneID 55776) | SID160744333 | 1.45 | 111 | 1.5 |
| GPR63 (GeneID 81491) | SID160731965 | -0.676 | 68.4 | -0.445 |
| GPR63 (GeneID 81491) | SID160750744 | 0.0636 | 83.2 | -0.276 |
| GPR63 (GeneID 81491) | SID160750745 | -1.01 | 61.9 | -1.12 |
| GNAT3 (GeneID 346562) | SID160764909 | 1.71 | 116 | 1.89 |
| GNAT3 (GeneID 346562) | SID160764910 | 0.29 | 87.7 | 0.201 |
| GNAT3 (GeneID 346562) | SID160764911 | -0.353 | 74.9 | -0.507 |
| TGFB2 (GeneID 7042) | SID160717988 | -1.4 | 54 | -0.337 |
| TGFB2 (GeneID 7042) | SID160717990 | 0.825 | 98.3 | 0.615 |
| TGFB2 (GeneID 7042) | SID160717991 | -1.1 | 60.1 | 0.126 |
